These are yes or no findings as the source states them, for the method shown. In cells and extracts the contact can be indirect. Binding calls can cover weak binding; strength is not graded here.
Biological target: TMEM147-GFP (human) (UniProt Q9BVK8)
Test: co-IP + SEC

Amino acid sequences for entries named in this document (tags omitted). A change or cut given only in a name is not applied to a line headed by its entry.
UniProt Q9BVK8: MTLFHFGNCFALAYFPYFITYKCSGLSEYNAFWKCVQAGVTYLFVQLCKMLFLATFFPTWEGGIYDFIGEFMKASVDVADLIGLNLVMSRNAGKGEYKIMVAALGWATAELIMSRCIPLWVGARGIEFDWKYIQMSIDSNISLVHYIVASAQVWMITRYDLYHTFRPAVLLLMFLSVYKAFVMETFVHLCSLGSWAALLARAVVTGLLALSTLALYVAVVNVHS
UniProt Q15155: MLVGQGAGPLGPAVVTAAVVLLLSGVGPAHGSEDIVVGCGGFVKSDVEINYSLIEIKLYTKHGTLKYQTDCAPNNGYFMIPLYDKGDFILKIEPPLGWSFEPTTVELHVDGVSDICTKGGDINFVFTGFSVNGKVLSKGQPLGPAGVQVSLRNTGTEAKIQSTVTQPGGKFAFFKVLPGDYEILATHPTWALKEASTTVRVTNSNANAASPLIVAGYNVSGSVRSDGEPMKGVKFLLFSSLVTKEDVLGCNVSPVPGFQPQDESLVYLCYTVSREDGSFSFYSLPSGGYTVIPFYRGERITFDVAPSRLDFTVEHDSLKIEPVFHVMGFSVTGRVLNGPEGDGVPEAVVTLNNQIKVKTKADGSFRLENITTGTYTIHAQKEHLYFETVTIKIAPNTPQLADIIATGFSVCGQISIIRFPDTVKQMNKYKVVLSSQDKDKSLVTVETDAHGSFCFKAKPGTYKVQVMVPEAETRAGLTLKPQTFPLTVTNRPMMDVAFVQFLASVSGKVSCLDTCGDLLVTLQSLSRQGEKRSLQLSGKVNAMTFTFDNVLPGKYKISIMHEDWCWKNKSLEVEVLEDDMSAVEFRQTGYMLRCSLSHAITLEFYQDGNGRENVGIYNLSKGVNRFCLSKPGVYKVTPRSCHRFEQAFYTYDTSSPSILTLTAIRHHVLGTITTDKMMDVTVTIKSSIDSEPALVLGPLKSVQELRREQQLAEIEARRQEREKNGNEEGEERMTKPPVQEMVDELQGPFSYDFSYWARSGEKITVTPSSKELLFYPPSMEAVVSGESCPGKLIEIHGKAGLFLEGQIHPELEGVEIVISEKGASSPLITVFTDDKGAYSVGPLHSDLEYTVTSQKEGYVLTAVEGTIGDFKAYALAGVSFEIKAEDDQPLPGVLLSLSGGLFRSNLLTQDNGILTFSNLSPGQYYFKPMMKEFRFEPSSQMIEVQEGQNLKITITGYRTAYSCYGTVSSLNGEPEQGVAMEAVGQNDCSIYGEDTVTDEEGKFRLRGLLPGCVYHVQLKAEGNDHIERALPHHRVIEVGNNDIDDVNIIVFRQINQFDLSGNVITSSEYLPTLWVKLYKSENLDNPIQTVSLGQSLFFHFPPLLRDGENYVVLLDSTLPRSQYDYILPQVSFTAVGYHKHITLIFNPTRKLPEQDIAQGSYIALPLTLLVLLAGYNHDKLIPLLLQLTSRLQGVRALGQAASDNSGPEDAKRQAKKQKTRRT

Substance: NOMO (from UniProt Q15155)
- binding: binds

From paper doi:10.1101/2023.03.09.531980
